# Assay results taken from PubChem BioAssay AID624496 (National Center for Advancing Translational Sciences (NCATS), 2012).
# Sequences of proteins named here, by UniProt entry; tags and fusion partners are left off.
# UniProt P14416, whole entry, looked up: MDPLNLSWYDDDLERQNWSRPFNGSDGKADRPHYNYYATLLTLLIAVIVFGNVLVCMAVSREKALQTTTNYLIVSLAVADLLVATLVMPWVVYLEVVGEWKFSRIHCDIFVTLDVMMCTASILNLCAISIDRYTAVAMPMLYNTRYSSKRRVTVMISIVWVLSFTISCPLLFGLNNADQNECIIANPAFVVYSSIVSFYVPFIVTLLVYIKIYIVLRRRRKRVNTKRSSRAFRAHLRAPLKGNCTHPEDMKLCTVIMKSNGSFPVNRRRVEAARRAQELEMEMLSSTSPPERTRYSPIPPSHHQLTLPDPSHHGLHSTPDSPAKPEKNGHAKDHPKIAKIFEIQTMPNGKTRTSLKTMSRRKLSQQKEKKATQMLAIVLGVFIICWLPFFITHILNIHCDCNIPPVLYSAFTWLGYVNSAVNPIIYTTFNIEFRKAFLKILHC
# The source calls these results inconclusive, neither active nor inactive. The call rests on the fitted dose curve; in most records, active means well fitted inhibition curve with a large enough effect; inconclusive means small, poorly fitted or top-dose-only effect, or another doubt; inactive means no such curve, though single readings can be large or run the other way. A potency beside an inconclusive call is a rough fit, not a confirmed value.
# Biological target: D(2) dopamine receptor (Homo sapiens) (UniProt P14416)
# Experiment: HTS Assay for Allosteric Antagonists of the Human D2 Dopamine Receptor: SAR in Primary Assay.
# Conditions: HEK293 T-REx D2 cells, calcium flux, dopamine EC80 antagonism
# From the text: Dopamine receptors (DARs) are involved in the etiology and/or therapy of a number of neuropsychiatric and endocrine disorders. For instance, all receptor-based antiparkinsonian drugs work via stimulating the D2 DAR subtype whereas all FDA-approved antipsychotic agents are antagonists of this receptor. […] There are three different types of allosteric modulators that we are seeking, two of which will stimulate or augment receptor signaling, allosteric agonists and potentiators, while the third, allosteric antagonists, will attenuate receptor signaling. The present project is looking for compound antagonism after an EC80 addition of dopamine by tracking calcium flux in a […], inducible Hek293 Trex D2 cell line, which act through an allosteric site. NIH Chemical Genomics Center [NCGC] NIH Molecular Libraries Probe Centers Network [MLPCN] […]
# Freshly passaged cells are plated in 1536 well black, clear bottom plates at a density of 4000 cells/well in 3 ul of complete media containing 1x tetracycline inducer. […] Agonist read: A 10 cycle (1 second/cycle) baseline measurement is taken and then the FDSS online 1536 pintool delivers 23 nl of compound library (as well as dopamine controls) to the plate. The plate is measured for kinetically at 1 cycle/sec for 180 seconds. Following the 180 second read, 1 ul of an EC80 (negative modulation assay) is delivered by an onboard pipette head. […]
row,Compound,Potency
1,CCN(Cc1ccccc1)C(=O)c1ccc2c(c1)N(CC)C(=O)c1ccccc1S2=O (configuration not stated),"inconclusive: 445 nM [inhibitor, full curve]"
2,CCN1C(=O)c2ccccc2S(=O)c2ccc(C(=O)NCc3cccc(OC)c3)cc21 (configuration not stated),"inconclusive: 177 nM [inhibitor, full curve, poor fit]"
